Reference: article doi:10.1101/2023.08.11.552890

By UniProt entry, the sequences of proteins in these tests, tags left out.
UniProt O35185: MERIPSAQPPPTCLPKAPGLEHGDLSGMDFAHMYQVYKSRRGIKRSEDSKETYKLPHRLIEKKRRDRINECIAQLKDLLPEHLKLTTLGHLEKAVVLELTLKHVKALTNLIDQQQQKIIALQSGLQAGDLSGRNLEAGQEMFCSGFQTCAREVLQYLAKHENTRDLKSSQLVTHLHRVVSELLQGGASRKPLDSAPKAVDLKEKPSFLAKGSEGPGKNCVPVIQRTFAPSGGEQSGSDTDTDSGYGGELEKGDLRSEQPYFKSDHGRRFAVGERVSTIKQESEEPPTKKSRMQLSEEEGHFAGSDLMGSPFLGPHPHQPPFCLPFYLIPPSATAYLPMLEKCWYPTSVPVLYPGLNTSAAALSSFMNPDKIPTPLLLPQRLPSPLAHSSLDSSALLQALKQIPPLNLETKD
UniProt Q8R3B7: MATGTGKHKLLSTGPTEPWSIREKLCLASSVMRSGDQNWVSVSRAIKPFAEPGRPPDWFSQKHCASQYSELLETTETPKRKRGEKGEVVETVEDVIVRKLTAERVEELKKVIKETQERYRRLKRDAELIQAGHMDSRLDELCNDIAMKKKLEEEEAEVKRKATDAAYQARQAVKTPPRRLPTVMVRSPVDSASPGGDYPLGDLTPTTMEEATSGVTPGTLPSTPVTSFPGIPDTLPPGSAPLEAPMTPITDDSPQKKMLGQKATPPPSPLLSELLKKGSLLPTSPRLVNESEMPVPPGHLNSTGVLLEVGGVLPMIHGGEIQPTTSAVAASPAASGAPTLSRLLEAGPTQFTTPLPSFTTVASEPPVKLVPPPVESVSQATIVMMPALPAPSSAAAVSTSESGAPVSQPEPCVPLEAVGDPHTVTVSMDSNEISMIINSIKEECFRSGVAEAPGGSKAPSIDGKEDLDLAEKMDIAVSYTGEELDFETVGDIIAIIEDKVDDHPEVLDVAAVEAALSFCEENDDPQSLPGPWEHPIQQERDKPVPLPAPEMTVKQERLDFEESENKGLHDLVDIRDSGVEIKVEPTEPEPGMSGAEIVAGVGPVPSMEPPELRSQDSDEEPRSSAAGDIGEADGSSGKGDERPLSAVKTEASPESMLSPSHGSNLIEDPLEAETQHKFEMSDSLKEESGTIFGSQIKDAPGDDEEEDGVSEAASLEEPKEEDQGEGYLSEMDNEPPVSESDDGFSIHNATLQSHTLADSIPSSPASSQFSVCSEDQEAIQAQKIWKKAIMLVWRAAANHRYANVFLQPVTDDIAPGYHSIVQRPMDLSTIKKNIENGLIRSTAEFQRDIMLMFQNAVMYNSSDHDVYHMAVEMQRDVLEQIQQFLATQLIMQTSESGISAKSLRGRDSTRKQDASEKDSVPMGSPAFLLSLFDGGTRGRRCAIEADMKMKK
UniProt Q60974: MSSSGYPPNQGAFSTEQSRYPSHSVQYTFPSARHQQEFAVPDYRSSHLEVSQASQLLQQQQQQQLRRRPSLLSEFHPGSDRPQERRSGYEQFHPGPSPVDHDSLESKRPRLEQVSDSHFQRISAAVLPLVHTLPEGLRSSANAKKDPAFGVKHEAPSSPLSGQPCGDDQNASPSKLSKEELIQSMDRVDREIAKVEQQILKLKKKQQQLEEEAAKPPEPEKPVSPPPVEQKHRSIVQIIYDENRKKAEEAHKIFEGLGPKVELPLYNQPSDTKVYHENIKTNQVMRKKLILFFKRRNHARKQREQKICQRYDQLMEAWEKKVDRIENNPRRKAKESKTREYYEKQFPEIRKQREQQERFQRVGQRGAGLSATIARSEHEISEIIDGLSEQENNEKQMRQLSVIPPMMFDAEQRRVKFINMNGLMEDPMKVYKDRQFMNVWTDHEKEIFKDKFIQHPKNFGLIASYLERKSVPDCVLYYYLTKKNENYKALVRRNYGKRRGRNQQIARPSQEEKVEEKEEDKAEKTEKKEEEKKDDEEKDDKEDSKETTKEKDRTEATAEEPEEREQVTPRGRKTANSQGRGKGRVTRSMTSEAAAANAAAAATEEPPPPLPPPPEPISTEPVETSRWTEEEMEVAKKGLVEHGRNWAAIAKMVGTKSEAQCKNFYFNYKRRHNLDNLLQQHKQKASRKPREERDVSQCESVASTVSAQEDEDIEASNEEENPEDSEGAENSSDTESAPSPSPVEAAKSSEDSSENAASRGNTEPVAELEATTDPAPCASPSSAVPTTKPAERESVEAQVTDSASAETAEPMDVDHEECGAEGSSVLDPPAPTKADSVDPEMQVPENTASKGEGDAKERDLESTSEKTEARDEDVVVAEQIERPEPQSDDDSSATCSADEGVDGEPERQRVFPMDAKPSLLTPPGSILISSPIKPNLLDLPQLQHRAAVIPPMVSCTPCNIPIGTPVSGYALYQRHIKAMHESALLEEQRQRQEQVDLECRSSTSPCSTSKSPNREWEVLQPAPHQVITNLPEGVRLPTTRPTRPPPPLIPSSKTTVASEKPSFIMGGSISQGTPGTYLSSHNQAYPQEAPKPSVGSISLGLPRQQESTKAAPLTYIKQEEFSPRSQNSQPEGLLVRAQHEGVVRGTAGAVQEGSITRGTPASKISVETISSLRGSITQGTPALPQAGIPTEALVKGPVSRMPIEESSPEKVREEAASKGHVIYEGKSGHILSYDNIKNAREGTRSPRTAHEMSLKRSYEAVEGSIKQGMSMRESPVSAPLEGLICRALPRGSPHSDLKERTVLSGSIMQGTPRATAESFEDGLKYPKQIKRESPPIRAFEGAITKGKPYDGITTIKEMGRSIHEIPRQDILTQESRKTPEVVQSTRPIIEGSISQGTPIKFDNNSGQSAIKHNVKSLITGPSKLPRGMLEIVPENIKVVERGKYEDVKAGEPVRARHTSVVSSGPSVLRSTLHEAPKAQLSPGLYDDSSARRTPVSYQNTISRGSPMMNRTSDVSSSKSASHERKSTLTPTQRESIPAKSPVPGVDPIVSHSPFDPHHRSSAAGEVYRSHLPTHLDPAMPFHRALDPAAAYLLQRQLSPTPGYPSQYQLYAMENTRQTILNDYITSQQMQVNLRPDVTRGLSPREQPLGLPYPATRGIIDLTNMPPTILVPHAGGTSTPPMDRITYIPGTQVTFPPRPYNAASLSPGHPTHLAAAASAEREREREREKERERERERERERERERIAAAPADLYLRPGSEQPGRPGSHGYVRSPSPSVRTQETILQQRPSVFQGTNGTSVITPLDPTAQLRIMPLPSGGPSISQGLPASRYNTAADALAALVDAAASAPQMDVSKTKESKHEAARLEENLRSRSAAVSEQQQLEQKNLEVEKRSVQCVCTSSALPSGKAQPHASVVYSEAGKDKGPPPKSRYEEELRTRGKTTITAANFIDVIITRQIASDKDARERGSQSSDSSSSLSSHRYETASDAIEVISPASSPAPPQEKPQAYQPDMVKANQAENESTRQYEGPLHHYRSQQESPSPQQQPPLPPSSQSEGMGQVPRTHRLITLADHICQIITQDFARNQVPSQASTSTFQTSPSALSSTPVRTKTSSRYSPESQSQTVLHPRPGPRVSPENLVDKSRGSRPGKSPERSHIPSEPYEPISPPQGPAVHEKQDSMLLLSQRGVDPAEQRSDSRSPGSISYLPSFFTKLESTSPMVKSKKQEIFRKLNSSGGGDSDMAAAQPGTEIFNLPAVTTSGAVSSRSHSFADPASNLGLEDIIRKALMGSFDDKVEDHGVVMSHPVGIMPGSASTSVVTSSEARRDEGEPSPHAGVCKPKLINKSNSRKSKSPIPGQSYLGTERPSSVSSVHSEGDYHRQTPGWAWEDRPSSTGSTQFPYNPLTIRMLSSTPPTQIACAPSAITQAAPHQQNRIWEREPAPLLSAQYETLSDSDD

B1: RAP80 (protein, UniProt Q5U5Q9 1-727)
chain: MPRRKKKIKEASESQNLEKKDLETSSCVSIKKKRRLEDLLIVISDSDGEETKEENGLQKTKTKQSNRSKCLAKRKVAHMSEEEQFALALKMSEQEAREVNNQEEKEEELLRKAIAESLNSCWSSAASATRSRPLAAELSSHSHQENTKDSGTTEGVWQLVPPSLCKGSHVSQGNEAEQRKEPWDHNENTEEEPVSGSSGSWDQSSQPVFENENVKCFDRCTGHLAEHTQCGKPQESTGSGYAFSKAVQGRGDTSRQCLPIPADTKGLQDTGGTVHYYWGIPFCPAGVDPNQYTNVILCQLEVYQKSLKMAQRQLVKKRGFGEPVLPRPPFLIQNECGQEDQTSDKNEGISEDMGDEAKEERQESRASVWHSETKDFQKSPIKSLKQKLLLEEEPTTSRGQSSQGLFVEETSEEGLKSSEGDNSVPTTQSIAALTSKRSLVLMPESSAEEITVCPETQLSFLEPLDLNREDSPDSRELPIEVRMAVGDKQVANREDCMKENPPPAVSSSTRVSCPLCNQDFPPTKIEQHAMYCNGLMEQETVLTRRRREAKNKSDGRTAAQPALDANRKEKCYLCKSLVPLGEYQCHVEACLQLAKVDREDGIEGTRRPRVCAPVEGKQQQRLKKSKDKGHSQGRLLSLLEQSEHRTTGVEKKPKYSEVRTFRMPSPEVEEASCSREMQSTLSQLNLNESPIKSFVPVSEATNCLVDFKEQFAFRSRTKSGRGRRRKS

Target: DEC1 (mouse (endogenous in MIN6)) (UniProt O35185)
Test: affinity purification with mass spectrometry

| Molecule | binding |
| --- | --- |
| BRD8 (from UniProt Q8R3B7 1-951) | binds |
| NCOR1 (from UniProt Q60974 1-2453) | binds |
| B1 | binds |

Results are given in words; binding and its absence hold for the method and conditions named. Binding seen in cells or lysates may run through a third protein. These calls come from enrichment with a bait or labelling near it, and not all partners need be listed.
